In paper PMC4175184, “Structure and function of cohesin’s Scc3/SA regulatory subunit” (Febs Letters, 2014):
Results are given in words; binding and its absence hold for the method and conditions named. A result given as binding can be weak or reduced; the word gives no strength. Sequences can lack the tags named with a protein.

Target: T1, Flag-tagged S. cerevisiae Scc3 (S. cerevisiae) (UniProt P40541)
T1 sequence: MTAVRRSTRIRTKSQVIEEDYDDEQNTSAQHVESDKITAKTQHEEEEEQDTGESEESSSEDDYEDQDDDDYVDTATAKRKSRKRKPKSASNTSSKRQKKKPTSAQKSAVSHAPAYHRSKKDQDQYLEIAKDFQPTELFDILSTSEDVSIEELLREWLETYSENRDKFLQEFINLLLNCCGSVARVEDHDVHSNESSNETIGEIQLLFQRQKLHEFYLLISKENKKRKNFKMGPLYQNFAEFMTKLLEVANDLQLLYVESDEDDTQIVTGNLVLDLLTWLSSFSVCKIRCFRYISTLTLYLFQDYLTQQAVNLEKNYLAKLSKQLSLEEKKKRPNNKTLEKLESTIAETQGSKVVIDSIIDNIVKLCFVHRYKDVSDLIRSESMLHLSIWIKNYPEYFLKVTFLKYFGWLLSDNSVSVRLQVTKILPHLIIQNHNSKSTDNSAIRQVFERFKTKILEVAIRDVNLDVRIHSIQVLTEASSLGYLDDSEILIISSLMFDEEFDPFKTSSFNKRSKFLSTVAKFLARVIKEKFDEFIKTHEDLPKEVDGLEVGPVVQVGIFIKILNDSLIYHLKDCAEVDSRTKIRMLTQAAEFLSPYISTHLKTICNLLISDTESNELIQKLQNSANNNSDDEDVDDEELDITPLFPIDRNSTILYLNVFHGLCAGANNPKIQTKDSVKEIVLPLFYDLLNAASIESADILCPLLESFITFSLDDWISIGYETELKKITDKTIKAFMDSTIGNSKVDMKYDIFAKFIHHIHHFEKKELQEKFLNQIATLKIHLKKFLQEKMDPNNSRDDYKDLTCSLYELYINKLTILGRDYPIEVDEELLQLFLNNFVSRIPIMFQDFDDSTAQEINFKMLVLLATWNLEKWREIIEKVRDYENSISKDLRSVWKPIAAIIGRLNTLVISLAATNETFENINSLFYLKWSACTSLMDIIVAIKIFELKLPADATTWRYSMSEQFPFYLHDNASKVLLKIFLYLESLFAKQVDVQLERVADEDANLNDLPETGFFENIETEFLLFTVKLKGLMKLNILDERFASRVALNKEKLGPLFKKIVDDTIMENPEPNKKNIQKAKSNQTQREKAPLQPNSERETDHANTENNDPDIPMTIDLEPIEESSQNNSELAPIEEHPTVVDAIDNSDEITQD
Assay: pull-down; Flag-tagged Scc3 held on anti-Flag M2 affinity gel; 5 μM of each purified protein in 100 μl TAP buffer (50 mM Tris–HCl, 250 mM NaCl, 1 mM β-mercaptoethanol, pH 7.5), 2 h at 4 °C; SDS–PAGE and Coomassie staining (Fig. 2B); both purified

Smc1 ATPase head co-purified with Scc1 fragment (residues 310–566) (S. cerevisiae) (complex)
binding: binds
